Binding data for 8 molecules are collected here from paper doi:10.1101/2024.02.15.580496 (bioRxiv, 2024).

Sequences of proteins named here, by UniProt entry; tags and fusion partners are left off.
UniProt Q9FIE3: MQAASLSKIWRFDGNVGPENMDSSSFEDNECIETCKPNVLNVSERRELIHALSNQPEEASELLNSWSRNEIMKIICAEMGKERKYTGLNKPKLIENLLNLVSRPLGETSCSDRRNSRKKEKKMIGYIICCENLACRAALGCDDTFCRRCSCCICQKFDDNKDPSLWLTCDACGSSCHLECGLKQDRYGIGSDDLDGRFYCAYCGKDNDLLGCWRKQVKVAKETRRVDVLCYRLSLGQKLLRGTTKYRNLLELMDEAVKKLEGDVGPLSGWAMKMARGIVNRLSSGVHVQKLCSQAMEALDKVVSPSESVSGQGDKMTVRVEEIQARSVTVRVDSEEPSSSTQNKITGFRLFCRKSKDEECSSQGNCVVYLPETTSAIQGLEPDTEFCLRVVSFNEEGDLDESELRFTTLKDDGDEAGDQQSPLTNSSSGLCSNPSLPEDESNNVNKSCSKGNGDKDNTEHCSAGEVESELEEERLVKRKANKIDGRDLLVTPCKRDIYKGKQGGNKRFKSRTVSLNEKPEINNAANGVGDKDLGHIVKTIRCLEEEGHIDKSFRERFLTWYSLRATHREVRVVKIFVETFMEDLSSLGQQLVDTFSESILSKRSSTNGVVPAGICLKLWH
UniProt O22467: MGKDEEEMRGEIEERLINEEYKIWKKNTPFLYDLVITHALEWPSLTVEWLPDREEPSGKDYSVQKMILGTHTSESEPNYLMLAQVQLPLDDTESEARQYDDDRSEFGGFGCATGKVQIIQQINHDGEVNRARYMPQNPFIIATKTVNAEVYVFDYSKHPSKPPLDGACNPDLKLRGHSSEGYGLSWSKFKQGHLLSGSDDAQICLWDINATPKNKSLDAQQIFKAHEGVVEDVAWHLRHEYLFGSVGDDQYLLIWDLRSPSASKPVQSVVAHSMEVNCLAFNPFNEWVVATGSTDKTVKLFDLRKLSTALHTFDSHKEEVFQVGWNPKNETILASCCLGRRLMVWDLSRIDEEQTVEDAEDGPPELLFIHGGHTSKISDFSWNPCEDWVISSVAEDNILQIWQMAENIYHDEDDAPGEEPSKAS

Assay [1] has as its target T1, VRN5-SYFP2 wild-type (pVRN5::VRN5-SYFP2) (Arabidopsis thaliana) (UniProt Q9LHF5).
T1 sequence: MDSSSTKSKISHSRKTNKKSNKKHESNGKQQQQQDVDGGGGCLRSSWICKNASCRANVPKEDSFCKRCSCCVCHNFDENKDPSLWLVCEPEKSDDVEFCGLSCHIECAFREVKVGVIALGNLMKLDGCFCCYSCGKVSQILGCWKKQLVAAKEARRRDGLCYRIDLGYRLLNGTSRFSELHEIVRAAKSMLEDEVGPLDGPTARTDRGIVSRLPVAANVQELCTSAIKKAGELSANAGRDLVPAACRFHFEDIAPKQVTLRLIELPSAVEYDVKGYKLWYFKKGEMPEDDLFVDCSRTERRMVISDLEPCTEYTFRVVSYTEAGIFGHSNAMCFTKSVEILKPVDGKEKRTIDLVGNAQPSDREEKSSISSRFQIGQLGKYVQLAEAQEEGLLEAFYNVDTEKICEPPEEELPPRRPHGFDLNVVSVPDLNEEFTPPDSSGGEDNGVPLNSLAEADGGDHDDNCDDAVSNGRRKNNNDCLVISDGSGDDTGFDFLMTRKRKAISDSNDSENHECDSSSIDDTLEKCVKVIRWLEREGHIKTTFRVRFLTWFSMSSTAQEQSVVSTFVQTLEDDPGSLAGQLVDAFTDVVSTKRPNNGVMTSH
The assay can be described thus: affinity purification with mass spectrometry.

For assay [2], the target named is VIN3-GFP wild-type (pVIN3:VIN3-eGFP) (Arabidopsis thaliana) (UniProt Q9FIE3). Nature of the assay: affinity purification with mass spectrometry.

Results are given in words; binding and its absence hold for the method and conditions named. Binding seen in cells or lysates may run through a third protein. These calls come from enrichment with a bait or labelling near it, and not all partners need be listed.

“MSI1 (PRC2 core subunit) (from UniProt O22467 1-424)”: the binding entry in assay [1] is listed as “binds”. As for “VIN3 (endogenous) (from UniProt Q9FIE3 1-620)”, the binding result in assay [1] is “binds”.

B1: VEL1 (endogenous) (protein, UniProt Q9SUM4 1-714)
chain: MDSSLDGAAGDSSKCSEMSVDEKRQLVYELSKQSHLAAEVLQAWSRQEILQILCAEMGKERKYTGLTKVKIIETLLKIVSEKNSGECEGKKRDSDCLPIQRNTKRQRKVDNPSRYVIPATNIVTSNNASGSCSSVNTKGESTTIYCKNLACRAVLRQEDSFCRRCSCCICRKYDDNKDPSLWLTCSSDPPFEGESCGFSCHLECAFNTEKSGLGKDKQSEGCCFYCVSCGKANSLLECWKKQLTIAKETRRVEVLCYRLFLVQKLLKSSTKYRNLCEVVDEAVKTLEADVGPLTGLPMKMGRGIVNRLHSGPDVQKLCSSALESLETIATTPPDVAALPSPRSSKMQQDCSYVLSNEISADTATTGSTKIRFEDVNATSLTVVLASNEIPSPPNIVHYSIWHRKVPEKDYPEKSTCTLFIPNTRFVVSGLAPASEYCFKVVSYSGTREMGVDEINVLTRSAEEGANCSSAVERSVSPLTNCSTLSSNPSSVEAESNNDYIVPKKPSSKNEDNNSPSVDESAAKRMKRTTDSDIVQIEKDVEQIVLLDDEEQEAVLDKTESETPVVVTTKSLVGNRNSSDASLPITPFRSDEIKNRQARIEISMKDNCNNGDHSANGGTESGLEHCVKIIRQLECSGHIDKNFRQKFLTWYSLRATSQEIRVVKIFIDTFIDDPMALAEQLIDTFDDRVSIKRSAVGGSGASAVVPSGFCMKLWH
As to B1, the binding result in assay [2] and in assay [1] was “binds” each time.

B2: FIE (PRC2 core subunit) (protein, UniProt Q9LT47 1-369)
chain: MSKITLGNESIVGSLTPSNKKSYKVTNRIQEGKKPLYAVVFNFLDARFFDVFVTAGGNRITLYNCLGDGAISALQSYADEDKEESFYTVSWACGVNGNPYVAAGGVKGIIRVIDVNSETIHKSLVGHGDSVNEIRTQPLKPQLVITASKDESVRLWNVETGICILIFAGAGGHRYEVLSVDFHPSDIYRFASCGMDTTIKIWSMKEFWTYVEKSFTWTDDPSKFPTKFVQFPVFTASIHTNYVDCNRWFGDFILSKSVDNEILLWEPQLKENSPGEGASDVLLRYPVPMCDIWFIKFSCDLHLSSVAIGNQEGKVYVWDLKSCPPVLITKLSHNQSKSVIRQTAMSVDGSTILACCEDGTIWRWDVITK
Regarding B2, the binding result in assay [1] was “binds”.

B3: VRN2 (PRC2 core subunit) (protein, UniProt Q8W5B1 1-440)
chain: MCRQNCRAKSSPEEVISTDENLLIYCKPVRLYNIFHLRSLGNPSFLPRCLNYKIGAKRKRKSRSTGMVVFNYKDCNNTLQRTEVREDCSCPFCSMLCGSFKGLQFHLNSSHDLFEFEFKLLEEYQTVNVSVKLNSFIFEEEGSDDDKFEPFSLCSKPRKRRQRGGRNNTRRLKVCFLPLDSPSLANGTENGIALLNDGNRGLGYPEATELAGQFEMTSNIPPAIAHSSLDAGAKVILTTEAVVPATKTRKLSAERSEARSHLLLQKRQFYHSHRVQPMALEQVMSDRDSEDEVDDDVADFEDRQMLDDFVDVNKDEKQFMHLWNSFVRKQRVIADGHISWACEVFSRFYEKELHCYSSLFWCWRLFLIKLWNHGLVDSATINNCNTILENCRNTSVTNNNNNSVDHPSDSNTNNNNIVDHPNDIKNKNNVDNKDNNSRDK
B3: the binding entry in assay [1] is given as “binds”.

B4: CURLY LEAF (CLF), PRC2 methyltransferase (protein, UniProt P93831 1-902)
chain: MASEASPSSSATRSEPPKDSPAEERGPASKEVSEVIESLKKKLAADRCISIKKRIDENKKNLFAITQSFMRSSMERGGSCKDGSDLLVKRQRDSPGMKSGIDESNNNRYVEDGPASSGMVQGSSVPVKISLRPIKMPDIKRLSPYTTWVFLDRNQRMTEDQSVVGRRRIYYDQTGGEALICSDSEEEAIDDEEEKRDFLEPEDYIIRMTLEQLGLSDSVLAELASFLSRSTSEIKARHGVLMKEKEVSESGDNQAESSLLNKDMEGALDSFDNLFCRRCLVFDCRLHGCSQDLIFPAEKPAPWCPPVDENLTCGANCYKTLLKSGRFPGYGTIEGKTGTSSDGAGTKTTPTKFSSKLNGRKPKTFPSESASSNEKCALETSDSENGLQQDTNSDKVSSSPKVKGSGRRVGRKRNKNRVAERVPRKTQKRQKKTEASDSDSIASGSCSPSDAKHKDNEDATSSSQKHVKSGNSGKSRKNGTPAEVSNNSVKDDVPVCQSNEVASELDAPGSDESLRKEEFMGETVSRGRLATNKLWRPLEKSLFDKGVEIFGMNSCLIARNLLSGFKSCWEVFQYMTCSENKASFFGGDGLNPDGSSKFDINGNMVNNQVRRRSRFLRRRGKVRRLKYTWKSAAYHSIRKRITEKKDQPCRQFNPCNCKIACGKECPCLLNGTCCEKYCGCPKSCKNRFRGCHCAKSQCRSRQCPCFAADRECDPDVCRNCWVIGGDGSLGVPSQRGDNYECRNMKLLLKQQQRVLLGISDVSGWGAFLKNSVSKHEYLGEYTGELISHKEADKRGKIYDRENCSFLFNLNDQFVLDAYRKGDKLKFANHSPEPNCYAKVIMVAGDHRVGIFAKERILAGEELFYDYRYEPDRAPAWAKKPEAPGSKKDENVTPSVGRPKKLA
Consider B4, for which, in assay [1], the binding result is “binds”.

B5: SWN (PRC2 core subunit) (protein, UniProt Q9ZSM8 1-856)
chain: MVTDDSNSSGRIKSHVDDDDDGEEEEDRLEGLENRLSELKRKIQGERVRSIKEKFEANRKKVDAHVSPFSSAASSRATAEDNGNSNMLSSRMRMPLCKLNGFSHGVGDRDYVPTKDVISASVKLPIAERIPPYTTWIFLDRNQRMAEDQSVVGRRQIYYEQHGGETLICSDSEEEPEPEEEKREFSEGEDSIIWLIGQEYGMGEEVQDALCQLLSVDASDILERYNELKLKDKQNTEEFSNSGFKLGISLEKGLGAALDSFDNLFCRRCLVFDCRLHGCSQPLISASEKQPYWSDYEGDRKPCSKHCYLQLKAVREVPETCSNFASKAEEKASEEECSKAVSSDVPHAAASGVSLQVEKTDIGIKNVDSSSGVEQEHGIRGKREVPILKDSNDLPNLSNKKQKTAASDTKMSFVNSVPSLDQALDSTKGDQGGTTDNKVNRDSEADAKEVGEPIPDNSVHDGGSSICQPHHGSGNGAIIIAEMSETSRPSTEWNPIEKDLYLKGVEIFGRNSCLIARNLLSGLKTCLDVSNYMRENEVSVFRRSSTPNLLLDDGRTDPGNDNDEVPPRTRLFRRKGKTRKLKYSTKSAGHPSVWKRIAGGKNQSCKQYTPCGCLSMCGKDCPCLTNETCCEKYCGCSKSCKNRFRGCHCAKSQCRSRQCPCFAAGRECDPDVCRNCWVSCGDGSLGEAPRRGEGQCGNMRLLLRQQQRILLGKSDVAGWGAFLKNSVSKNEYLGEYTGELISHHEADKRGKIYDRANSSFLFDLNDQYVLDAQRKGDKLKFANHSAKPNCYAKVMFVAGDHRVGIFANERIEASEELFYDYRYGPDQAPVWARKPEGSKKDDSAITHRRARKHQSH
Turning to B5, the binding entry in assay [1] is given as “binds”.

B6: VRN5 (endogenous) (protein, UniProt Q9LHF5 1-602)
chain: MDSSSTKSKISHSRKTNKKSNKKHESNGKQQQQQDVDGGGGCLRSSWICKNASCRANVPKEDSFCKRCSCCVCHNFDENKDPSLWLVCEPEKSDDVEFCGLSCHIECAFREVKVGVIALGNLMKLDGCFCCYSCGKVSQILGCWKKQLVAAKEARRRDGLCYRIDLGYRLLNGTSRFSELHEIVRAAKSMLEDEVGPLDGPTARTDRGIVSRLPVAANVQELCTSAIKKAGELSANAGRDLVPAACRFHFEDIAPKQVTLRLIELPSAVEYDVKGYKLWYFKKGEMPEDDLFVDCSRTERRMVISDLEPCTEYTFRVVSYTEAGIFGHSNAMCFTKSVEILKPVDGKEKRTIDLVGNAQPSDREEKSSISSRFQIGQLGKYVQLAEAQEEGLLEAFYNVDTEKICEPPEEELPPRRPHGFDLNVVSVPDLNEEFTPPDSSGGEDNGVPLNSLAEADGGDHDDNCDDAVSNGRRKNNNDCLVISDGSGDDTGFDFLMTRKRKAISDSNDSENHECDSSSIDDTLEKCVKVIRWLEREGHIKTTFRVRFLTWFSMSSTAQEQSVVSTFVQTLEDDPGSLAGQLVDAFTDVVSTKRPNNGVMTSH
Regarding B6, the binding result in assay [2] was “binds”.
